The list shows a part of the results.

Chains of the proteins cited; added tags and fusions are not shown.
UniProt Q0JBA9, entry or part of it: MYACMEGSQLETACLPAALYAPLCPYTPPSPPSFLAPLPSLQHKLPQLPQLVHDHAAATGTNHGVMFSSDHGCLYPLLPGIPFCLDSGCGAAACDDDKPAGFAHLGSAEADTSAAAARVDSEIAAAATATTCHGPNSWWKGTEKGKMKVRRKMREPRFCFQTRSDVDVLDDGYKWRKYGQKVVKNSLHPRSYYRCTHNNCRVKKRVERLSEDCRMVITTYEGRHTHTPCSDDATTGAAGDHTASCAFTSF

This assay has as its target OsWRKY34 (Oryza sativa, UniProt Q0JBA9 1-250). The assay is described as follows: protein-binding microarray (RPBM); PBS, 2% BSA, 51.3 ng/ul salmon testes DNA, 50 uM zinc acetate, 200 nM TF, 25 C, 1 h; high values mean tight binding. Particulars: protein: recombinant; tags: N-terminal polyhistidine and DsRed monomer fusion (pET32a); label: CyDye5-dUTP incorporated in the synthesized complementary strand; 3' TTTTT single-stranded linker to array surface; dsDNA, one strand shown. Summed up:
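Transcription factors, each fused N-terminally to a polyhistidine tag and DsRed, were expressed in E. coli BL21-CodonPlus and purified on Ni–NTA. A custom Agilent array was made double-stranded by primer extension with Cy5-dUTP and blocked with 2% BSA. It was incubated with 200 nM protein in PBS, 2% BSA, salmon testes DNA and 50 µM zinc acetate at 25 °C for 1 h, then washed. The binding signal is per-feature fluorescence intensity (arbitrary units) read on an Axon 4000B scanner.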
Turning to “TTTTGAGGATGTCTCTCTCTTCAAATCTCGTTTTTTTCTTCGGAGTCACCTAGTGCAG”, the binding signal is 8620 fluorescence intensity (a.u.).
For the sequence “CACCTTCTCGGGCCATCCTACGCCCCGTCCCGGCGCAAGCCGGAGTCACCTAGTGCAG”, the binding signal was 11800 fluorescence intensity (a.u.).
On to “GACGAATGGTCAAACGTTGTTTAAAAAGTCAACGGCGTCACGGAGTCACCTAGTGCAG”, for which the binding signal was 12700 fluorescence intensity (a.u.).
Regarding “CTCCGATTGGGCAGATGGACTTGTTACCACGGGGAGGAGGCGGAGTCACCTAGTGCAG”, the binding signal was 8090 fluorescence intensity (a.u.).
In the case of “GGACCCCAACCACTATGCCGTAATTTAGCGTGTTTTCCCGCGGAGTCACCTAGTGCAG” it was 9170 fluorescence intensity (a.u.).
Regarding “ACAACACATTCATACTAAAGTTACACTGTTCTATATTTTGCGGAGTCACCTAGTGCAG”, the binding signal is 8520 fluorescence intensity (a.u.).
In the case of “TTAAACAACCTAAAAAAAGTCGTCCTTTTTTTTTCTGCAACGGAGTCACCTAGTGCAG” it was 8120 fluorescence intensity (a.u.); in that of “GGTTCGCTATCCTCGCGCTCTTGTCTCCACCACCCAAAATCGGAGTCACCTAGTGCAG”, 9230 fluorescence intensity (a.u.); in that of “GCGATTTGCCCTCTTGCACGCGTCGCCCCGCGCACCGCACCGGAGTCACCTAGTGCAG”, 8880 fluorescence intensity (a.u.).
For the sequence “TAATTTTGGTCTGAAGTTTTTTTTTTGTTGTTTTCGTTGTCGGAGTCACCTAGTGCAG”, the binding signal was 9160 fluorescence intensity (a.u.).
For “CGTATTTGTTCCATCTCGTATTCGCTCCGTATCTGTATTCCGGAGTCACCTAGTGCAG”, the binding signal is 10600 fluorescence intensity (a.u.).
Consider “TATCCCTTCACCAAAACAGAGGAAAAAAGAATCCACTCAACGGAGTCACCTAGTGCAG”, for which the binding signal was 8570 fluorescence intensity (a.u.).
Turning to “GATATTTTGTTTATTTGTGTTCCTTCTTAAGTCCTTTATTCGGAGTCACCTAGTGCAG”, the binding signal was 8440 fluorescence intensity (a.u.).
In the case of “AGCAGGAGGGGTGGGGCACATACTCGCCATCTTCTTGCACCGGAGTCACCTAGTGCAG”, the binding signal is 15900 fluorescence intensity (a.u.).
Take “GGCAACATCTCCATCGTTTTGGCCCATGTACCCGATTACACGGAGTCACCTAGTGCAG”: the binding signal is 11200 fluorescence intensity (a.u.).
As for “AGGTAATCCCATTGTTCTAGTTCTTTCAGATTTAATATGTCGGAGTCACCTAGTGCAG”, the binding signal is 9690 fluorescence intensity (a.u.).
Consider “CTATGATTATGGCTTTGTACCTGTCACGCTGACATCACTCCGGAGTCACCTAGTGCAG”, for which the binding signal is 8100 fluorescence intensity (a.u.).
Regarding “TTTCTTCTCAACTCGCCTCAGCTGCATCCTCATCTTGGTCCGGAGTCACCTAGTGCAG”, the binding signal is 10600 fluorescence intensity (a.u.).
As for “CAATTTTTTTTCGTTGTCACGGTTCGTCTTCCTTAAGTTCCGGAGTCACCTAGTGCAG”, the binding signal was 14400 fluorescence intensity (a.u.).
On to “GAAGCCGGCGCCGCTTTCTTCCGCTCCACTCCACCGGCGCCGGAGTCACCTAGTGCAG”, for which the binding signal is 8450 fluorescence intensity (a.u.).
With “ATTGTGTGGTTTCTCCCTCTCTGGTTCTACCGCTTCTCCTCGGAGTCACCTAGTGCAG”, the binding signal was 8160 fluorescence intensity (a.u.).
Regarding “ACCGGTCTCATCGCTAACCACCAACACCTAATCGTCATTACGGAGTCACCTAGTGCAG”, the binding signal is 9800 fluorescence intensity (a.u.).
Take “CGAGCCGTTCTGATCCTTCGCCATGCCCTACCTGCCGCGCCGGAGTCACCTAGTGCAG”: the binding signal was 8350 fluorescence intensity (a.u.).

These data come from paper PMC7819943, “Rice protein-binding microarrays: a tool to detect cis-acting elements near promoter regions in rice”.
